These are yes or no findings as the source states them, for the method shown. In cells and extracts the contact can be indirect. Binding can be weak; no strength is given.
How the values were obtained:
[1] = biological target: MTBP K310 single point mutant, C-terminally 3×Flag-tagged (293T) (human) (UniProt Q96DY7); experiment: co-IP; 293T transiently transfected with C-terminally 3×Flag-tagged MTBP; anti-FLAG antibody on Protein G Dynabeads, lysis buffer 20 mM HEPES, 150 mM NaCl, 10% glycerol, 0.1% Triton X-100, 1 h at 4°C; endogenous Treslin/TICRR and Cdk8 by immunoblot
[2] = biological target: MTBP L311 single point mutant, C-terminally 3×Flag-tagged (293T) (human) (UniProt Q96DY7); experiment: as above
[3] = biological target: MTBP M308 single point mutant, C-terminally 3×Flag-tagged (293T) (human) (UniProt Q96DY7); experiment: as above
[4] = biological target: MTBP P315 single point mutant, C-terminally 3×Flag-tagged (293T) (human) (UniProt Q96DY7); experiment: as above
[5] = biological target: MTBP Q307 single point mutant, C-terminally 3×Flag-tagged (293T) (human) (UniProt Q96DY7); experiment: as above
[6] = biological target: MTBP S312 single point mutant, C-terminally 3×Flag-tagged (293T) (human) (UniProt Q96DY7); experiment: as above
[7] = biological target: MTBP S316 single point mutant, C-terminally 3×Flag-tagged (293T) (human) (UniProt Q96DY7); experiment: as above
[8] = biological target: MTBP V306 single point mutant, C-terminally 3×Flag-tagged (293T) (human) (UniProt Q96DY7); experiment: as above
[9] = biological target: MTBP–Cdk8 binding mutant (Cdk8bm), Flag3-tagged (HeLa Flip-In T-Rex stable line) (human) (UniProt Q96DY7); experiment: co-IP; Flag IP from native lysates of HeLa Flip-In T-Rex lines expressing MTBP-Flag3 (WT or mutants); endogenous Treslin/TICRR and Cdk8 by immunoblot; in S5 Fig lysates with or without lambda phosphatase, M2 anti-Flag magnetic beads

The chains behind the UniProt entries cited, without tags or fusion partners. Where a name states a change or a piece, a line headed by the entry shows the natural chain unless it says otherwise.
UniProt Q96DY7: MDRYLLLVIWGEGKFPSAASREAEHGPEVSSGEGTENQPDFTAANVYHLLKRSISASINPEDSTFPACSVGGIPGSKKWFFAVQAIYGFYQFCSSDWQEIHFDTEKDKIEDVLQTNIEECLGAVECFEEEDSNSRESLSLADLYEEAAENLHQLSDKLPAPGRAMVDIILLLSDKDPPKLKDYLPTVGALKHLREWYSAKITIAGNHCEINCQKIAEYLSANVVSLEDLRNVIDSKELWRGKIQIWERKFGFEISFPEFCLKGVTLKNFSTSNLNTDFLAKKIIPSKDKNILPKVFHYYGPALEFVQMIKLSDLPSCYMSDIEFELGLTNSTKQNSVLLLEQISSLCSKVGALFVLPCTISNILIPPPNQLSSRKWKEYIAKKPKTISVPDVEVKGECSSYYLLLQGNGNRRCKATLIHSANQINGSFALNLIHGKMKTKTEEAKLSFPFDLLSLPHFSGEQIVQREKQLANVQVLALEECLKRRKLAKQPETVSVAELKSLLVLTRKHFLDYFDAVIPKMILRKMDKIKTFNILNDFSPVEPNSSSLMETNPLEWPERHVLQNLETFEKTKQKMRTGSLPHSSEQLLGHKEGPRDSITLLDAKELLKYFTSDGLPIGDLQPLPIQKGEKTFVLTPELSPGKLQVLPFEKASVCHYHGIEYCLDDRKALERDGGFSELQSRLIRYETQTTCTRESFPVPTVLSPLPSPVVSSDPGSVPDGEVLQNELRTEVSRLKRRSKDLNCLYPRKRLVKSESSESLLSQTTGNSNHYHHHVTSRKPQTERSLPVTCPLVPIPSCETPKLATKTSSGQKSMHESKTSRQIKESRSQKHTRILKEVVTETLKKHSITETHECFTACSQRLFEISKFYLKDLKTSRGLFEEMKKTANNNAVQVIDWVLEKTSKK
UniProt P49336: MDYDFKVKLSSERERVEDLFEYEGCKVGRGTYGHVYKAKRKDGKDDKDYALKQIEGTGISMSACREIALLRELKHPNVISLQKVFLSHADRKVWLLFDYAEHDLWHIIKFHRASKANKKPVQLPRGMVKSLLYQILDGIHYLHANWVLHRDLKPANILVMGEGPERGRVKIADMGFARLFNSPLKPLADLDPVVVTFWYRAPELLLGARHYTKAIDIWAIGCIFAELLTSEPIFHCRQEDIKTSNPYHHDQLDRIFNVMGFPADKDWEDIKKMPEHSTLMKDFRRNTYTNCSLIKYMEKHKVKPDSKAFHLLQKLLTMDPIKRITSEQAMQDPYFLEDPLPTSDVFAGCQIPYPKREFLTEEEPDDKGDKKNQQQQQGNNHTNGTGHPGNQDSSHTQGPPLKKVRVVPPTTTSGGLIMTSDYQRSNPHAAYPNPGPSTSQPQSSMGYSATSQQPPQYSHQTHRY
UniProt Q7Z2Z1: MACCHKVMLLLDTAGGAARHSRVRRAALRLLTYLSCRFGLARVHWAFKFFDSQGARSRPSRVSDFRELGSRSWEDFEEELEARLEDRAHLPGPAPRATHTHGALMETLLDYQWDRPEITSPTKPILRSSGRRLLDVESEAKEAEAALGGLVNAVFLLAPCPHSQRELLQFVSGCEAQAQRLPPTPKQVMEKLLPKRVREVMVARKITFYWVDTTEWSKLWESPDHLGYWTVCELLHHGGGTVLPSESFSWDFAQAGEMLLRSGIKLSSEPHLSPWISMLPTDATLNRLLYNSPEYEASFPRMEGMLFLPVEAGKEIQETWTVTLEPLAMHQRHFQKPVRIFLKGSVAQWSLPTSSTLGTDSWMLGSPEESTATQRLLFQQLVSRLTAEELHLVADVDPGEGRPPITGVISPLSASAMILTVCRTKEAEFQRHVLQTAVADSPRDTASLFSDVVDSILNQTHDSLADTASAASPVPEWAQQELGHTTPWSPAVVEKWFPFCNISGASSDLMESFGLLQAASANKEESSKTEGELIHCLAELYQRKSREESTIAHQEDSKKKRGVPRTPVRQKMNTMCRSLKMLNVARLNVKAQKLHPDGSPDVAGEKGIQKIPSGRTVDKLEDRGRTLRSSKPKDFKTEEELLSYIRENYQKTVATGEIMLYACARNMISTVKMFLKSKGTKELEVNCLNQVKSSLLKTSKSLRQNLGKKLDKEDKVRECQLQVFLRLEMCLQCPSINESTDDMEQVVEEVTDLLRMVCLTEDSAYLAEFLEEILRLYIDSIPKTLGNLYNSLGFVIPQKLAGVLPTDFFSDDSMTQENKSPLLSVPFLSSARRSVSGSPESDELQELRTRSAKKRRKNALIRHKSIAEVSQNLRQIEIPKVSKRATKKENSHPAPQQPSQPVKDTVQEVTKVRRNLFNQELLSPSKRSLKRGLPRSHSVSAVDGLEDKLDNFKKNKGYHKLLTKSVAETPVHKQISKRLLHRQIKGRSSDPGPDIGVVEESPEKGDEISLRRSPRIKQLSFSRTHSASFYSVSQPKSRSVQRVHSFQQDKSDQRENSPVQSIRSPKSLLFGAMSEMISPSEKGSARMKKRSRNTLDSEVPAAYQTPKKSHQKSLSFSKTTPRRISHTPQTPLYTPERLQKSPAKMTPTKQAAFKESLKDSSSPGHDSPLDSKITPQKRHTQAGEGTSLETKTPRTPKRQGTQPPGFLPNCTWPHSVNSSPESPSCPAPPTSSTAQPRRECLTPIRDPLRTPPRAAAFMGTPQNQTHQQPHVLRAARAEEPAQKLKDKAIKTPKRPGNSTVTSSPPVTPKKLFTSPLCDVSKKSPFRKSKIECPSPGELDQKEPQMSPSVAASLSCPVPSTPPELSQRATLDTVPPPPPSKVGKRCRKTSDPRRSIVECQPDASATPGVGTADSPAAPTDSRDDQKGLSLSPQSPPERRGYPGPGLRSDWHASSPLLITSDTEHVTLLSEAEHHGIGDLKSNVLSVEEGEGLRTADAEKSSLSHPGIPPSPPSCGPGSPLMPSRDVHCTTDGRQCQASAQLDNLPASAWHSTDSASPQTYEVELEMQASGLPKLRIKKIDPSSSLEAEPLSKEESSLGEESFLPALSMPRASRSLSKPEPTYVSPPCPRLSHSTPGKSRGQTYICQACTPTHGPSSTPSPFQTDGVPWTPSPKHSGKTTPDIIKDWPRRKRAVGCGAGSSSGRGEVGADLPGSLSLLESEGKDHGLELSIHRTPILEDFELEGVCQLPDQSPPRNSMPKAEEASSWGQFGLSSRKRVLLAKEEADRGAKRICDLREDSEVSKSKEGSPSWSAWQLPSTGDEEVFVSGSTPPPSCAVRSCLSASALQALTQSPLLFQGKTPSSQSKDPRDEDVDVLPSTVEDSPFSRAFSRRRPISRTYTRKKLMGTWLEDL

Measured: binding

Cdk8 (cyclin-dependent kinase 8), endogenous (from UniProt P49336 1-464) (enzyme)
not listed: [9]
binds: all other assays above

Treslin/TICRR (TopBP1-interacting replication stimulating protein/TopBP1-interacting checkpoint and replication regulator), endogenous (from UniProt Q7Z2Z1 1-1910)
binds: [9] | [1] | [3] | [5] | [6]

Reference: article PMC6377148
